{"source": "PubChem BioAssay AID1259254 – NCATS, 2017", "purpose": "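Genome-wide screen for genes that prevent DNA re-replication in cancer cells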 (primary screen)", "cell system": "human HCT116 colorectal cancer cells", "reagents": "single siRNA against human genes", "time to read-out": "3 days", "measurement": "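Nuclei stained with Hoechst and imaged; cell-cycle phase assigned by DNA content; G2 share scaled per plate, non-targeting siRNA 0%, GMNN siRNA 100%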", "scale": "G2 robust z-score and G2 cells, % of GMNN control: higher = more G2 cells, more excess DNA replication", "hit rule": "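An siRNA counts as active if its G2 robust z-score lies at least 5 MADs above the screen median; here such calls match roughly 38% of GMNN control or more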", "note": "Shown is a random part of about 59,000 reagents. Of all reagents, about 1,550 (2.6%) got an active call. 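G2 share is only a proxy for re-replication; each gene was hit by three separate siRNAs, and active genes were retested.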 Unmarked entries are inactive. The numbers tell different reagents against one gene apart. Further read-outs or replicates are left out here. The record does not give: the amount of reagent."}
{"gene": "GSDMB (GeneID 55876)", "siRNA no.": 1, "G2 robust z-score": -0.667, "G2 cells, % of GMNN control": -1.72}
{"gene": "GSDMB (GeneID 55876)", "siRNA no.": 2, "G2 robust z-score": -0.589, "G2 cells, % of GMNN control": -1.18}
{"gene": "GSDMB (GeneID 55876)", "siRNA no.": 3, "G2 robust z-score": -0.0711, "G2 cells, % of GMNN control": 2.47}
{"gene": "KCNRG (GeneID 283518)", "siRNA no.": 1, "G2 robust z-score": -1.56, "G2 cells, % of GMNN control": -7.99}
{"gene": "KCNRG (GeneID 283518)", "siRNA no.": 2, "G2 robust z-score": -0.135, "G2 cells, % of GMNN control": 2.02}
{"gene": "KCNRG (GeneID 283518)", "siRNA no.": 3, "G2 robust z-score": -0.0852, "G2 cells, % of GMNN control": 2.37}
{"gene": "CPA5 (GeneID 93979)", "siRNA no.": 1, "G2 robust z-score": -0.531, "G2 cells, % of GMNN control": -0.769}
{"gene": "CPA5 (GeneID 93979)", "siRNA no.": 2, "G2 robust z-score": 1.04, "G2 cells, % of GMNN control": 10.3}
{"gene": "CPA5 (GeneID 93979)", "siRNA no.": 3, "G2 robust z-score": 4.52, "G2 cells, % of GMNN control": 34.7}
{"gene": "BCKDHB (GeneID 594)", "siRNA no.": 1, "G2 robust z-score": 0.545, "G2 cells, % of GMNN control": 6.8}
{"gene": "BCKDHB (GeneID 594)", "siRNA no.": 2, "G2 robust z-score": -1.32, "G2 cells, % of GMNN control": -6.34}
{"gene": "BCKDHB (GeneID 594)", "siRNA no.": 3, "G2 robust z-score": 2.24, "G2 cells, % of GMNN control": 18.7}
{"gene": "CREG1 (GeneID 8804)", "siRNA no.": 1, "G2 robust z-score": -0.211, "G2 cells, % of GMNN control": 1.48}
{"gene": "CREG1 (GeneID 8804)", "siRNA no.": 2, "G2 robust z-score": 1.12, "G2 cells, % of GMNN control": 10.8}
{"gene": "CREG1 (GeneID 8804)", "siRNA no.": 3, "G2 robust z-score": -1.05, "G2 cells, % of GMNN control": -4.42}
{"gene": "SLC6A1 (GeneID 6529)", "siRNA no.": 1, "G2 robust z-score": 0.698, "G2 cells, % of GMNN control": 7.88}
{"gene": "SLC6A1 (GeneID 6529)", "siRNA no.": 2, "G2 robust z-score": 2.79, "G2 cells, % of GMNN control": 22.6}
{"gene": "SLC6A1 (GeneID 6529)", "siRNA no.": 3, "G2 robust z-score": 0.605, "G2 cells, % of GMNN control": 7.22}
{"gene": "SYP (GeneID 6855)", "siRNA no.": 1, "G2 robust z-score": 2.42, "G2 cells, % of GMNN control": 20}
{"gene": "SYP (GeneID 6855)", "siRNA no.": 2, "G2 robust z-score": -0.337, "G2 cells, % of GMNN control": 0.599}
{"gene": "SYP (GeneID 6855)", "siRNA no.": 3, "G2 robust z-score": 0.17, "G2 cells, % of GMNN control": 4.17}
{"gene": "UNG (GeneID 7374)", "siRNA no.": 1, "G2 robust z-score": 0.18, "G2 cells, % of GMNN control": 4.23}
{"gene": "UNG (GeneID 7374)", "siRNA no.": 2, "G2 robust z-score": 2.67, "G2 cells, % of GMNN control": 21.7}
{"gene": "UNG (GeneID 7374)", "siRNA no.": 3, "G2 robust z-score": -1.48, "G2 cells, % of GMNN control": -7.42}
